Measurements published in PubChem BioAssay AID1745846 (National Center for Advancing Translational Sciences (NCATS), 2022).
Out of some 1,400 compounds screened, about 30 (2%) were called active. Roughly 15% stayed inconclusive and do not appear here. The call rests on the fitted dose curve; in most records, active means well fitted inhibition curve with a large enough effect; inconclusive means small, poorly fitted or top-dose-only effect; inactive means flat fitted curve, though single readings scatter. This is one part of the list.

Experiment: Firefly Luciferase Counterscreen for Inhibitors of ATXN expression
Settings: luminescence; series mostly up to 57.5 µM; activity change, negative = inhibition: at the top concentration
How it was run: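 Recombinant firefly luciferase at 10 nM final in 50 mM Tris pH 7.5, 10 mM MgCl2, 0.05% BSA, 0.01% Tween20 with substrate; compounds up to 57 uM final, 10 min room temperature, end-point luminescence. Buffer-only wells define 100% inhibition.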
On the % scale 0 is the no-effect control and ±100 the full control effect.

Row | SMILES | activity change, negative = inhibition
1 | OCCNc1c2ccccc2nc2c(F)c(F)c(F)c(F)c12 | inactive: -2.52%
2 | O=[N+]([O-])c1ccccc1S(=O)(=O)Nc1cccc2cccnc12 | inactive: -7.56%
3 | CCOC(=O)c1ccccc1NC(=O)CSc1nc2ccccc2c(=O)n1CCCN1CCOCC1 | inactive: 0.291%
4 | Cc1c(Cl)cccc1NC(=O)N1CCCN(c2nc(-c3ccccc3)ns2)CC1 | inactive: -3.2%
5 | N#C/C(=C\c1ccc([N+](=O)[O-])o1)c1nc2ccccc2[nH]1 | inactive: -5%
6 | Cc1cc(C)n2nc(C(=O)N/N=C/c3c4ccccc4cc4ccccc34)nc2n1 | inactive: -7.93%
7 | O=S(=O)(c1ccccc1)N1CCN(c2ccnc3cc(Cl)ccc23)CC1 | inactive: 2.99%
8 | O=C(COc1ccccc1)NCC(=O)N/N=C/c1ccc(O)cc1O | inactive: 10.1%
9 | Cn1nnnc1Sc1ncnc2scc(-c3ccccc3Br)c12 | inactive: -6.21%
10 | Nc1c2ccccc2nc2ccccc12 | inactive: -4.35%
11 | O=C(CNC(=O)c1ccco1)N/N=C/c1cc(Br)ccc1O | inactive: 0.605%
12 | C[C@@H](CN1C2=NC[C@H](Cc3ccccc3)N2C[C@H]1Cc1ccc(O)cc1)NC(=O)CCC1CCCCC1 | inactive: 1.67%
13 | CCN(CC)CCNC(=O)c1ccc(NC(=O)c2ccc(Cl)c(S(=O)(=O)N3CCCCCC3)c2)cc1 | inactive: -1.29%
14 | Cc1cccc2sc(NNC(=O)c3ccc(S(=O)(=O)N4CC(C)CC(C)C4)cc3)nc12 (stereo unspecified) | inactive: -14%
15 | CCCCOc1ccc(NC2=NC3(CCCC3)N=C(N)N2)cc1 | inactive: 1.38%
16 | CC1(C(=O)N/N=C/c2ccc([N+](=O)[O-])o2)CC1(Br)Br (stereo unspecified) | inactive: -2.6%
17 | COc1cc(CC(=O)Nc2nc(-c3ccc(F)c(F)c3)cs2)cc(OC)c1OC | inactive: -3.38%
18 | CN(c1ccccc1)S(=O)(=O)c1cccc(NC(=O)c2cc(=O)c3ccccc3o2)c1 | inactive: -0.345%
19 | O=c1cc(N2CCN(c3ccccc3)CC2)[nH]c(=O)n1C1CCCCC1 | inactive: 2.44%
20 | N#C/C(=C(/O)COC(=O)CSc1ccc(Cl)cc1)c1nc2ccccc2[nH]1 | inactive: -8.72%
21 | CC(=O)c1cc(CN2CCC(C(=O)Nc3cccc(-c4cscn4)c3)CC2)cs1 | inactive: -1.74%

Row | SMILES | activity change, negative = inhibition
22 | COc1cc(/C=N/Nc2snc(SC)c2C#N)cc(OC)c1OC | inactive: -9.89%
23 | CCc1nc(N)nc(N)c1-c1ccc(N(C)Cc2ccccc2)c([N+](=O)[O-])c1 | inactive: -9.73%
24 | CCN(CC)c1cc(C)c2cc(NC(=O)c3ccccc3OC)ccc2n1 | inactive: -12%
25 | Cc1ccc2sc(N(CCCN(C)C)C(=O)c3ccc(S(=O)(=O)N4CCCCCC4)cc3)nc2c1C | inactive: 1.53%
26 | CCOc1ccc(NC(=O)Nc2nnc(CC(=O)NCc3ccccc3)s2)cc1 | inactive: 2.13%
27 | CCCCCn1c(CN2CCN(c3cccc(Cl)c3)CC2)nc2c1c(=O)[nH]c(=O)n2C | inactive: 4.7%
28 | CCC(=O)NC(c1ccc(OC)c(OC)c1)c1cc(Cl)c2cccnc2c1O (stereo unspecified) | inactive: -19%
29 | NC(Cc1ccc(Cl)cc1)c1csc(Nc2cc(NCCCO)ncn2)n1 (stereo unspecified) | inactive: 1.08%
30 | COc1ccc(CC(N)c2csc(NC(=O)c3ccccc3OC)n2)cc1 (stereo unspecified) | inactive: -15.2%
31 | COc1cc(OC)c(OC)cc1/C=C1\CC(C)C/C(=C\c2cc(OC)c(OC)cc2OC)C1=O (stereo unspecified) | inactive: -4.51%
32 | O=C(Nc1cccc(S(=O)(=O)c2cccc(NC(=O)c3ccco3)c2)c1)c1ccco1 | inactive: 0.819%
33 | O=C(CSC1=NNC(c2ccccn2)S1)Nc1ccc(C(F)(F)F)cc1 (stereo unspecified) | inactive: -5.9%
34 | CCOC(=O)c1c(SCCN2CCCCC2)n(-c2ccccc2)c(=S)n(-c2ccccc2)c1=O | inactive: -0.73%
35 | O=C(Nc1ccc(N2CCN(C(=O)c3ccco3)CC2)c(Cl)c1)c1c(F)c(F)c(F)c(F)c1F | inactive: 2.69%
36 | CCOc1ccc(C(CN2CCOCC2)C(C)=O)cc1OC (stereo unspecified) | inactive: 1.8%
37 | O=C(CNC(=O)c1cccc(F)c1)N/N=C/c1cc(Br)ccc1OC(=O)/C=C/c1ccco1 | inactive: -1.86%
38 | O=c1cnnc(N/N=C/c2ccccn2)[nH]1 | inactive: 3.6%
39 | Cc1ccc(C(=O)O)cc1N1C(=O)c2cccc3c([N+](=O)[O-])ccc(c23)C1=O | inactive: -15.6%
40 | C=CCN=c1scc(-c2ccc3c(c2)NC(=O)CO3)n1/N=C(\C)c1ccccn1 | inactive: -2.89%
41 | COc1ccc(C(C)=O)cc1CC1(C)C(=O)Nc2ccc(-c3cccc(C(F)(F)F)c3)cc21 (stereo unspecified) | inactive: 3.08%
42 | Cc1ccnc(NC(=O)C2CCN(S(=O)(=O)c3c(C)c(C)cc(C)c3C)CC2)c1 | inactive: -6%

Row | SMILES | activity change, negative = inhibition
43 | COc1ccccc1-c1ccc2c(c1)C(C)(Cc1cccc(F)c1)C(=O)N2 (stereo unspecified) | inactive: -2.21%
44 | Cn1c(/C=C/c2ccc(Cl)cc2Cl)c([N+](=O)[O-])c(=O)n(C)c1=O | inactive: -9.21%
45 | C[C@H]1O[C@@H](O[C@H]2[C@@H](O)C[C@H](O[C@H]3[C@@H](O)C[C@H](O[C@H]4CC[C@@]5(C)[C@H](CC[C@@H]6[C@@H]5C[C@@H](O)[C@]5(C)[C@@H](C7=CC(=O)OC7)CC[C@]65O)C4)O[C@@H]3C)O[C@@H]2C)C[C@H](O)[C@@H]1O | inactive: 3.6%
46 | O=C(CNC(=O)c1cccc(Br)c1)N/N=C/c1cc(Br)cc(Br)c1O | inactive: -19%
47 | O=C(NC(Nc1nc2ccc([N+](=O)[O-])cc2s1)(C(F)(F)F)C(F)(F)F)c1ccccc1 | inactive: -7.13%
48 | Cc1cccc(NC(c2ccc(C)s2)c2ccc3ccc(C)nc3c2O)n1 (stereo unspecified) | inactive: -5.52%
49 | Cc1ccccc1NC(=O)Nc1nc(C(N)C2CCCCC2)cs1 (stereo unspecified) | inactive: 3.72%
50 | COc1cc(C(=O)NC(=S)NNC(=O)c2cnccn2)cc(OC)c1OC | inactive: -7.31%
51 | CN1C(=O)/C(=C/c2ccccc2F)Sc2ccc(C(=O)N3CCCC3)cc21 | inactive: -14.9%
52 | CC(C)(C)c1ccc(OCCn2nc(C(=O)O)c3ccccc3c2=O)cc1 | inactive: -8.32%
53 | O=C(c1ccc(S(=O)(=O)c2cccc(Cl)c2)c([N+](=O)[O-])c1)N1CCN(Cc2ccccc2)CC1 | inactive: 2%
54 | COc1ccc(C(=O)N/N=C/c2cc(Br)ccc2O)cc1OC | inactive: -8.96%
55 | CN(C)CCCNc1nc2cc(-c3ccc(F)cc3)sc2c(=O)n1C | inactive: -4.33%
56 | O=C(Nc1c(Cl)cccc1Cl)Oc1cccc2cccnc12 | inactive: 4.64%
57 | Nc1nonc1-n1nnc(C(=O)N/N=C/c2ccccc2O)c1CN1CCCC1 | inactive: -14.9%
58 | CCOC(=O)C1CCN(c2cc3c(cc2NC(=O)c2ccccc2OCC)n(C)c(=O)n3C)CC1 | inactive: -4.33%
59 | CC(NC1=CC(=O)c2cccnc2C1=O)C(O)c1ccccc1 (stereo unspecified) | inactive: -12.2%
60 | c1ccc(-c2cc3c(N4CCN(c5ccccc5)CC4)ncnc3s2)cc1 | inactive: -8.66%
61 | Cn1ncc2c(Nc3cccc(Cl)c3)nc(Nc3cccc(Cl)c3)nc21 | inactive: -15.4%
